Source: PubChem BioAssay AID1487 (National Center for Advancing Translational Sciences (NCATS), 2009)
The other results are listed elsewhere or left out. The main result of the screen is listed elsewhere. These columns were measured beside it and carry no call. Compounds called inactive in the main read-out are mostly missing here. The note in brackets gives the kind of curve behind each potency; many fits are weak.

Experiment: qHTS Assay for Modulators of Lamin A Splicing
Conditions: HeLa LMNA splicing GFP/RFP minigene ratio, 48 h
Outline: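 Read-out is the ratio of GFP to DsRed2 object intensity, acquired by 488 nm laser-scanning cytometry on HeLa lamin A-EGFP minigene reporter cells. Compound incubation 48 hrs at 37 °C in Opti-MEM with 2% FBS; DMSO 0.5% final.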

[1] = measured here: GFP splicing reporter channel
[2] = measured here: RFP viability control channel

Row | SMILES | AC50 [1] | AC50 [2]
1 | Cc1ccc(OCc2ccc(C(=O)Nc3ccc(C(N)=O)cc3)o2)c([N+](=O)[O-])c1 | 35.5 µM [falling, single point] | 35.5 µM [falling, single point]
2 | O=C1CCN(c2ncccc2[N+](=O)[O-])CC1 | – | 3.98 µM [falling, partial curve, poor fit]
3 | CC(=O)Nc1ccc(OCC(O)CN2CCN(c3ccc(Cl)cc3)CC2)cc1 (stereo not given) | – | 22.4 µM [rising, single point]
4 | CSc1nc2ccc(NS(=O)(=O)c3ccc(Cl)s3)cc2s1 | – | 15.8 µM [rising, single point]
5 | O=c1c2c(-c3ccc(Cl)cc3)csc2ncn1/N=C/c1cccc([N+](=O)[O-])c1O | 20 µM [rising, partial curve] | 12.6 µM [rising, partial curve]
6 | CC1Cc2ccccc2N1CC(=O)NC(=O)NCc1ccco1 (stereo not given) | – | 35.5 µM [rising, single point]
7 | O=C(OCc1cc(Cl)ccc1OC(F)F)c1cccnc1 | – | 2.24 µM [falling, partial curve]
8 | O=C(/C=C/c1ccc(F)cc1)Nc1cc(S(=O)(=O)N2CCOCC2)ccc1N1CCCC1 | 35.5 µM [rising, single point] | 28.2 µM [rising, single point]
9 | CCOC(=O)c1c(-c2ccccc2)csc1NC(=S)N(CC)CC | – | 28.2 µM [rising, single point]
10 | O=C(Nc1cccnc1)Nc1ccc(F)c(Cl)c1 | – | 25.1 µM [rising, single point]
11 | Cc1ccc(C(=O)OC2=C(C(=O)c3ccccc3)N(C)S(=O)(=O)c3ccccc32)cc1 | 0.0794 µM [falling, full curve, poor fit] | –
12 | COc1cccc(-c2cc(=O)c3cc(NC(=O)c4ccc(N(C)C)cc4)ccc3[nH]2)c1 | 1.58 µM [falling, single point] | –
13 | Nc1c(NC(=O)CC[n+]2ccccc2)cccc1[N+](=O)[O-] | 35.5 µM [rising, single point] | 35.5 µM [rising, single point]
14 | CC(=O)[C@@H]1CC[C@@H]2[C@@H]3C[C@H](C)C4=CC(=O)CC[C@@]4(C)[C@H]3[C@H](O)C[C@]21C | 8.91 µM [rising, partial curve] | 7.08 µM [rising, partial curve]
15 | CCc1ccc(OCC(=O)NC(NC(=S)Nc2ccc(C)cc2C)C(Cl)(Cl)Cl)cc1 (stereo not given) | 14.1 µM [falling, single point] | 11.2 µM [falling, partial curve]
16 | CCCCOc1ccc(-c2nnc(-c3ccco3)o2)cc1 | 12.6 µM [rising, partial curve] | –
17 | O=C(Nc1ccc(Oc2ccccc2)cc1)c1ccc(F)c(S(=O)(=O)N2CCN(c3cccc(Cl)c3)CC2)c1 | 0.447 µM [falling, full curve, poor fit] | –
18 | S=c1[nH]nc(-c2cccnc2)n1/N=C/C=C/c1ccco1 | – | 0.00398 µM [falling, full curve, poor fit]
19 | CN(C)c1cccc(C(=O)NCc2ccccc2Cl)c1 | 35.5 µM [rising, single point] | 28.2 µM [rising, single point]
20 | CC#CCN1c2ccccc2[C@]23C[C@@H](C(=O)OC)N(C(=O)c4cc(C)oc4C)C2=NC(C(=O)OC)=C(C(=O)OC)[C@H]13 | 3.16 µM [rising, single point] | 3.16 µM [rising, single point]
21 | O=C(c1cc(C(=O)N2CCOCC2)c2nc3ccccc3n2c1)c1ccccc1O | 10 µM [falling, partial curve, poor fit] | –
22 | N#CC1=C(SCc2ccc(C#N)cc2)N=C(N)C(c2nc(-c3ccccc3)cs2)C12CCCCC2 (stereo not given) | – | 11.2 µM [rising, single point]
23 | Cc1ccc(C)c(N2C(=O)N(Cc3ccccc3C)c3ccccc3S2(=O)=O)c1 | – | 0.00447 µM [falling, full curve, poor fit]
24 | CC(C)(C)NC[C@H](O)COc1cccc2c1C[C@@H](O)[C@@H](O)C2 | 0.251 µM [falling, single point] | 0.398 µM [falling, single point]
25 | CCOc1cccc2cc(-c3nnc(NCc4ccc5c(c4)OCO5)s3)c(=O)oc12 | – | 3.16 µM [rising, single point]
26 | Cc1ccc(NC(=O)Cc2ccc(NC(=O)N3CCCCc4ccccc43)cc2)cc1Cl | 0.1 µM [falling, full curve] | 1.58 µM [falling, partial curve, poor fit]
27 | O=C(O)/C=C/c1ccc(O)c(O)c1 | 2.82 µM [rising, single point] | 2.82 µM [rising, full curve]

Among those listed so far, these contain an NH in an aromatic ring.
Row | SMILES | AC50 [1] | AC50 [2]
12 | COc1cccc(-c2cc(=O)c3cc(NC(=O)c4ccc(N(C)C)cc4)ccc3[nH]2)c1 | 1.58 µM [falling, single point] | –
18 | S=c1[nH]nc(-c2cccnc2)n1/N=C/C=C/c1ccco1 | – | 0.00398 µM [falling, full curve, poor fit]

More compounds follow:

Row | SMILES | AC50 [1] | AC50 [2]
28 | Cc1cc(C)c(NC(=O)/C(=C/c2ccccc2)c2ccccc2)c(C)c1 | 17.8 µM [rising, single point] | 28.2 µM [rising, single point]
29 | CCSc1ncc(/C=N/Nc2ccccc2)n1C | 11.2 µM [rising, single point] | 12.6 µM [rising, partial curve]
30 | CS(=O)(=O)c1ccc(C(=O)Nc2ccc(N3CCCCC3)cc2)c(Cl)c1 | 0.891 µM [rising, full curve, poor fit] | –
31 | Cc1cccc(C)c1-n1ncc(C(=O)NCCCN2CCCCC2)c1C1CCN(C(=O)OC(C)(C)C)CC1 | – | 35.5 µM [rising, partial curve]
32 | COc1ccc(C2CC(C(F)(F)F)n3nc(C(=O)NCc4c(C)nn(C)c4C)c(Cl)c3N2)cc1 (stereo not given) | – | 11.2 µM [rising, partial curve]
33 | O=[N+]([O-])c1ccc(/C=C/C2=NN(c3ccccc3)C(c3ccco3)C2)cc1 (stereo not given) | – | 15.8 µM [rising, partial curve]
34 | C/C=C/C=C/C(=O)OCC(=O)Nc1ccc(Cl)cc1 | – | 0.562 µM [falling, partial curve, poor fit]
35 | CCCNC(=O)COC(=O)/C=C/c1ccc(C)o1 | – | 0.398 µM [falling, partial curve, poor fit]
36 | CCN(CC)S(=O)(=O)c1ccc(/C=C/C(=O)Nc2ccc(Br)cc2F)cc1 | – | 3.55 µM [rising, full curve]
37 | O=C(CCCn1c(=O)[nH]c2ccsc2c1=O)Nc1ccc(F)cc1 | 1.12 µM [falling, full curve, poor fit] | 0.00398 µM [falling, full curve]
38 | CCc1ccc(OCC(=O)Nc2cccc3c2CCCC3)cc1 | – | 11.2 µM [rising, single point]
39 | O=c1[nH]c(CSc2ncnc3sc(-c4ccccc4)cc23)nc2ccccc12 | 0.794 µM [falling, partial curve] | 1.58 µM [falling, partial curve]
40 | CCc1c(C(=O)N/N=C/c2cn[nH]c2-c2ccc(F)cc2)csc1C | 14.1 µM [rising, partial curve, poor fit] | 7.08 µM [rising, partial curve, poor fit]
41 | c1ccc(Nc2nc(-c3ccoc3)nc3ccccc23)cc1 | 11.2 µM [falling, partial curve] | 15.8 µM [falling, single point]
42 | CCOc1ccc(-c2nnc(SCC(=O)NC3CCCCC3)nc2-c2ccc(OCC)cc2)cc1 | – | 0.02 µM [rising, full curve, poor fit]
43 | C=CCn1c(Cc2cccc3ccccc23)n[nH]c1=S | 12.6 µM [rising, partial curve, poor fit] | 10 µM [rising, partial curve]
44 | Cc1ccc(-c2nc3cc(NC(=O)C(C)C)ccc3o2)cc1C | – | 22.4 µM [rising, partial curve]
45 | Clc1ccc(Cn2c(CN3CCCC3)nc3ccccc32)cc1 | 0.355 µM [falling, full curve, poor fit] | 0.158 µM [falling, full curve]
46 | CCn1c(SCC(=O)NCc2ccc(F)cc2)nc2c(c1=O)SC(C)C2 (stereo not given) | – | 0.0355 µM [rising, full curve, poor fit]
47 | CCOC(=O)N1CCN(CC(O)COc2ccccc2C(C)CC)CC1 (stereo not given) | – | 0.316 µM [rising, full curve, poor fit]
48 | COc1ccc2cc(Br)ccc2c1CC(=O)NC(C)C | – | 15.8 µM [falling, single point]
49 | O=C(C1CCCN(S(=O)(=O)Cc2ccccc2)C1)N1CCC(Cc2ccccc2)CC1 (stereo not given) | 17.8 µM [rising, single point] | 15.8 µM [rising, single point]
50 | CCOC(=O)c1c(NC(=O)CCN2CCOCC2)sc(C)c1-c1ccccc1 | 15.8 µM [falling, single point] | 12.6 µM [falling, partial curve]
51 | O=C(NC1CCCC1)c1ccc2c(=O)n(Cc3ccccc3)c(SCc3ccc([N+](=O)[O-])cc3)nc2c1 | 0.398 µM [falling, full curve, poor fit] | –
52 | COc1cccc(CNC(=O)CN2C(=O)CCc3cc(S(=O)(=O)N4CCOCC4)ccc32)c1 | – | 10 µM [rising, partial curve, poor fit]
53 | Nn1c(-c2cccs2)nc2sc3c(c2c1=O)CCCC3 | 35.5 µM [rising, single point] | 35.5 µM [rising, single point]
